Consider one compound from paper PMC11254172 (International Journal for Parasitology: Drugs and Drug …, 2024).

Series [1] relates to zebrafish (Danio rerio) embryos. Particulars: 96 h exposure.
The conditions of series [2]: 20 mg/kg/day for 5 days, mice.
The test system of series [3] is N. caninum NcSpain-7 tachyzoites. To be noted: in vivo.
The subject of series [4] is T. gondii TgShSp1 oocysts. To be noted: for Tg-PCR brain positive adults: adult CD1 mice.

Like-named read-outs stand apart in the source and are kept apart here.

For the compound `CC(C)(CO)Cn1nc(-c2ccc3cc(OC4CC4)ccc3c2)c(C(N)=O)c1N` [BKI-1708], in series [1] (0.2 to 50 μM tested), the “Concentration not interfering with zebrafish embryo development” value is listed as “up to 2 μM”. Besides, the “Effect on zebrafish embryo development at concentrations higher than 2 μM” value in series [1] (above 2 μM up to 50 μM) is given as “detrimental effects”. In series [2], the “Mean plasma concentration (overall)” value turned out to be 1.04 ± 0.78 µM and the “Plasma level for each time point / average threshold” value is “below 2 μM”. Moreover, the “Nc-PCR positive brain adults” value in series [3] is listed as 4/14. Besides, in series [4] (5 mg/kg/day oral x 5 days), the “Tg-PCR brain positive adults” value is on record as 11/12 and the “Tg-PCR brain positive pups” value is listed as 130/132. For the same compound, in series [4] (20 mg/kg/day oral x 5 days), the “Tg-PCR brain positive adults” value is 10/12 and the “Tg-PCR brain positive pups” value is 14/90.
